# Measurements from patent US20170226208A1 (SUPPREMOL, published 2017).
# By UniProt entry, the sequences of proteins in these tests, tags left out. Residues count along the entry.
# UniProt P31994, residues 43-310: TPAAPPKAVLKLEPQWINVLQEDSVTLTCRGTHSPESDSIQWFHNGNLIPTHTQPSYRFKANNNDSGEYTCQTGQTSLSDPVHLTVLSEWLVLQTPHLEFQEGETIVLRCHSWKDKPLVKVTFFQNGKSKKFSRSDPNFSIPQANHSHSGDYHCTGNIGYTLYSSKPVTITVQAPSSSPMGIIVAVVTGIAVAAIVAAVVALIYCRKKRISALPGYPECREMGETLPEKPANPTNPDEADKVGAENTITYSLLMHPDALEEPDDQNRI
# These are yes or no findings as the source states them, for the method shown. Binding seen in cells or lysates may run through a third protein. Some results given as binding are weak or reduced against the parent protein; the word gives no strength.
# B1: SHIP-1 (enzyme, human, UniProt Q92835 1-1189, looked up)
# chain: MVPCWNHGNITRSKAEELLSRTGKDGSFLVRASESISRAYALCVLYRNCVYTYRILPNEDDKFTVQASEGVSMRFFTKLDQLIEFYKKENMGLVTHLQYPVPLEEEDTGDDPEEDTVESVVSPPELPPRNIPLTASSCEAKEVPFSNENPRATETSRPSLSETLFQRLQSMDTSGLPEEHLKAIQDYLSTQLAQDSEFVKTGSSSLPHLKKLTTLLCKELYGEVIRTLPSLESLQRLFDQQLSPGLRPRPQVPGEANPINMVSKLSQLTSLLSSIEDKVKALLHEGPESPHRPSLIPPVTFEVKAESLGIPQKMQLKVDVESGKLIIKKSKDGSEDKFYSHKKILQLIKSQKFLNKLVILVETEKEKILRKEYVFADSKKREGFCQLLQQMKNKHSEQPEPDMITIFIGTWNMGNAPPPKKITSWFLSKGQGKTRDDSADYIPHDIYVIGTQEDPLSEKEWLEILKHSLQEITSVTFKTVAIHTLWNIRIVVLAKPEHENRISHICTDNVKTGIANTLGNKGAVGVSFMFNGTSLGFVNSHLTSGSEKKLRRNQNYMNILRFLALGDKKLSPFNITHRFTHLFWFGDLNYRVDLPTWEAETIIQKIKQQQYADLLSHDQLLTERREQKVFLHFEEEEITFAPTYRFERLTRDKYAYTKQKATGMKYNLPSWCDRVLWKSYPLVHVVCQSYGSTSDIMTSDHSPVFATFEAGVTSQFVSKNGPGTVDSQGQIEFLRCYATLKTKSQTKFYLEFHSSCLESFVKSQEGENEEGSEGELVVKFGETLPKLKPIISDPEYLLDQHILISIKSSDSDESYGEGCIALRLEATETQLPIYTPLTHHGELTGHFQGEIKLQTSQGKTREKLYDFVKTERDESSGPKTLKSLTSHDPMKQWEVTSRAPPCSGSSITEIINPNYMGVGPFGPPMPLHVKQTLSPDQQPTAWSYDQPPKDSPLGPCRGESPPTPPGQPPISPKKFLPSTANRGLPPRTQESRPSDLGKNAGDTLPQEDLPLTKPEMFENPLYGSLSSFPKPAPRKDQESPKMPRKEPPPCPEPGILSPSIVLTKAQEADRGEGPGKQVPAPRLRSFTCSSSAEGRAAGGDKSQGKPKTPVSSQAPVPAKRPIKPSRSEINQQTPPTPTPRPPLPVKSPAVLHLQHSKGRDYRDNTELPHHGKHRPEEGPPGPLGRTAMQ
# modifications: phosphorylated (phospho-SHIP-1)
# Molecular target: FcγRIIB precipitated from lysates of stimulated Daudi cells (human) (UniProt P31994)
# Assay: co-immunoprecipitation from Daudi cell lysates with 2B6, Western blot for phospho-SHIP-1
binder,measurement,value
B1,binding,binds
